No constants are given. Whether binding was seen depends on the method and setting. Binding seen in cells or lysates may run through a third protein. A result given as binding can be weak or reduced; the word gives no strength.
Target: T1, Phytophthora suppressor of RNA silencing 2 (PSR2), expressed in transgenic Arabidopsis line PSR2-5 (P. sojae) (UniProt E0W4V5)
T1 sequence: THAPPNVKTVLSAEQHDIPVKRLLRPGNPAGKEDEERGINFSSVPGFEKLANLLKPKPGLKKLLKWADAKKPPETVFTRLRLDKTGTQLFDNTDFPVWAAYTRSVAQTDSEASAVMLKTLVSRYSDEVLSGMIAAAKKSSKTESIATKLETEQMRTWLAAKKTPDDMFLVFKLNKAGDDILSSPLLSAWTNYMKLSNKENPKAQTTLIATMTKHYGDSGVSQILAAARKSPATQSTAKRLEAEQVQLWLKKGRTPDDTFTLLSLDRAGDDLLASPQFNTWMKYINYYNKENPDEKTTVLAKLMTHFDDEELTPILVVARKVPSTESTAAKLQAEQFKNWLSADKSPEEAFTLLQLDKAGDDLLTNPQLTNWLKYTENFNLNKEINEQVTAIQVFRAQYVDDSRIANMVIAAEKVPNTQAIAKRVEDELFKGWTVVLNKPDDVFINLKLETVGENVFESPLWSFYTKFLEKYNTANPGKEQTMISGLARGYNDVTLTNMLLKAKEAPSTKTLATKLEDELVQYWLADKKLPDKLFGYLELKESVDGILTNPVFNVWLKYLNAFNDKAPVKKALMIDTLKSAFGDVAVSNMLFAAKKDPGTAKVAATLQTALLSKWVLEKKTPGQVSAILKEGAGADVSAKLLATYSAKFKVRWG
Assay: co-IP

Substance	binding
PDF2 (PP2A A subunit), endogenous in Arabidopsis (from UniProt Q38951)	binds
PDF1 (PP2A A subunit), endogenous in Arabidopsis (from UniProt Q38950)	binds
